Test results from the supplement of paper PMC7661543.
Differences between knockout arms are mostly noise.

System: MDA-MB-231
Experiment: relative cell number vs DMSO control (72 h) (% of DMSO); higher = less growth inhibition (more cells)
Description: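 QMAP-Seq: a pool of 5 breast cancer cell lines (ZR-75-1, SKBR3, HCC-38, MDA-MB-231, BT-20), each carrying 12 doxycycline-inducible Cas9 sgRNA perturbations (11 knockouts plus non-targeting sgNT), was treated with compounds for 72 h at four 10-fold doses (10 nM-10 uM or 1 nM-1 uM range). Barcodes were amplified and sequenced, and cell number was interpolated from 293T spike-in standard curves. The result is expressed as % of the median of DMSO wells. Two biological replicates.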

C[C@@H]1CN(CC(=O)Nc2ccc3c(c2)Cc2cccc(-c4cc(=O)cc(N5CCOCC5)o4)c2S3)C[C@H](C)O1
Conditions | relative cell number
sgRNA knockout: sgATF3, 10 nM | 102
sgRNA knockout: sgATF3, 100 nM | 79.1
sgRNA knockout: sgATF3, 1000 nM | 115
sgRNA knockout: sgATF3, 10000 nM | 41.4
sgRNA knockout: sgATF4, 10 nM | 98.6
sgRNA knockout: sgATF4, 100 nM | 90.5
sgRNA knockout: sgATF4, 1000 nM | 128
sgRNA knockout: sgATF4, 10000 nM | 49.4
sgRNA knockout: sgATF6, 10 nM | 90.5
sgRNA knockout: sgATF6, 100 nM | 82.1
sgRNA knockout: sgATF6, 1000 nM | 81.3
sgRNA knockout: sgATF6, 10000 nM | 43
sgRNA knockout: sgATG7, 10 nM | 106
sgRNA knockout: sgATG7, 100 nM | 75.4
sgRNA knockout: sgATG7, 1000 nM | 77.1
sgRNA knockout: sgATG7, 10000 nM | 43
sgRNA knockout: sgERN1, 10 nM | 109
sgRNA knockout: sgERN1, 100 nM | 87
sgRNA knockout: sgERN1, 1000 nM | 78.73
sgRNA knockout: sgERN1, 10000 nM | 42.5
sgRNA knockout: sgHSF1, 10 nM | 99.7
sgRNA knockout: sgHSF1, 100 nM | 91.9
sgRNA knockout: sgHSF1, 1000 nM | 90.9
sgRNA knockout: sgHSF1, 10000 nM | 43.5
sgRNA knockout: sgHSF2, 10 nM | 102
sgRNA knockout: sgHSF2, 100 nM | 118
sgRNA knockout: sgHSF2, 1000 nM | 81
sgRNA knockout: sgHSF2, 10000 nM | 56.5
sgRNA knockout: sgKEAP1, 10 nM | 96.4
sgRNA knockout: sgKEAP1, 100 nM | 70.795
sgRNA knockout: sgKEAP1, 1000 nM | 92
sgRNA knockout: sgKEAP1, 10000 nM | 47.1
sgRNA knockout: sgNFE2L2, 10 nM | 76.5
sgRNA knockout: sgNFE2L2, 100 nM | 100
sgRNA knockout: sgNFE2L2, 1000 nM | 82.1
sgRNA knockout: sgNFE2L2, 10000 nM | 42.9
sgRNA knockout: sgSLC35F2, 10 nM | 78.7
sgRNA knockout: sgSLC35F2, 100 nM | 84.2
sgRNA knockout: sgSLC35F2, 1000 nM | 107
sgRNA knockout: sgSLC35F2, 10000 nM | 44.7
sgRNA knockout: sgXBP1, 10 nM | 99.3
sgRNA knockout: sgXBP1, 100 nM | 93.3
sgRNA knockout: sgXBP1, 1000 nM | 94.2
sgRNA knockout: sgXBP1, 10000 nM | 46.5

CC(C)[C@H](O)C(=O)N[C@@H](C)C(=O)N[C@@H]1C(=O)N(C)CCc2ccccc21 [Semagacestat]
Conditions | relative cell number
sgRNA knockout: sgATF3, 10 nM | 115
sgRNA knockout: sgATF3, 100 nM | 92.6
sgRNA knockout: sgATF3, 1000 nM | 90.4
sgRNA knockout: sgATF3, 10000 nM | 96.2
sgRNA knockout: sgATF4, 10 nM | 99.7
sgRNA knockout: sgATF4, 100 nM | 103
sgRNA knockout: sgATF4, 1000 nM | 76.3
sgRNA knockout: sgATF4, 10000 nM | 77.6
sgRNA knockout: sgATF6, 10 nM | 84.1
sgRNA knockout: sgATF6, 100 nM | 107
sgRNA knockout: sgATF6, 1000 nM | 112
sgRNA knockout: sgATF6, 10000 nM | 102
sgRNA knockout: sgATG7, 10 nM | 111.2
sgRNA knockout: sgATG7, 100 nM | 84.2
sgRNA knockout: sgATG7, 1000 nM | 82.9
sgRNA knockout: sgATG7, 10000 nM | 76.1
sgRNA knockout: sgERN1, 10 nM | 89.6
sgRNA knockout: sgERN1, 100 nM | 129
sgRNA knockout: sgERN1, 1000 nM | 79.9
sgRNA knockout: sgERN1, 10000 nM | 95.92
sgRNA knockout: sgHSF1, 10 nM | 94.7
sgRNA knockout: sgHSF1, 100 nM | 87.2
sgRNA knockout: sgHSF1, 1000 nM | 79.7
sgRNA knockout: sgHSF1, 10000 nM | 70.8
sgRNA knockout: sgHSF2, 10 nM | 100
sgRNA knockout: sgHSF2, 100 nM | 92
sgRNA knockout: sgHSF2, 1000 nM | 87.7
sgRNA knockout: sgHSF2, 10000 nM | 81.7
sgRNA knockout: sgKEAP1, 10 nM | 86.9
sgRNA knockout: sgKEAP1, 100 nM | 80.3
sgRNA knockout: sgKEAP1, 1000 nM | 98.1
sgRNA knockout: sgKEAP1, 10000 nM | 110
sgRNA knockout: sgNFE2L2, 10 nM | 109
sgRNA knockout: sgNFE2L2, 100 nM | 86.5
sgRNA knockout: sgNFE2L2, 1000 nM | 88.5
sgRNA knockout: sgNFE2L2, 10000 nM | 67.4
sgRNA knockout: sgSLC35F2, 10 nM | 126
sgRNA knockout: sgSLC35F2, 100 nM | 94
sgRNA knockout: sgSLC35F2, 1000 nM | 96
sgRNA knockout: sgSLC35F2, 10000 nM | 92
sgRNA knockout: sgXBP1, 10 nM | 127
sgRNA knockout: sgXBP1, 100 nM | 86.9
sgRNA knockout: sgXBP1, 1000 nM | 94.7
sgRNA knockout: sgXBP1, 10000 nM | 97.1

CC(C)(C)c1nc(-c2cccc(NS(=O)(=O)c3c(F)cccc3F)c2F)c(-c2ccnc(N)n2)s1 [Dabrafenib]
Conditions | relative cell number
sgRNA knockout: sgATF3, 10 nM | 163
sgRNA knockout: sgATF3, 100 nM | 102
sgRNA knockout: sgATF3, 1000 nM | 94
sgRNA knockout: sgATF3, 10000 nM | 123.2
sgRNA knockout: sgATF4, 10 nM | 152
sgRNA knockout: sgATF4, 100 nM | 87.9
sgRNA knockout: sgATF4, 1000 nM | 86.4
sgRNA knockout: sgATF4, 10000 nM | 109
sgRNA knockout: sgATF6, 10 nM | 139
sgRNA knockout: sgATF6, 100 nM | 133
sgRNA knockout: sgATF6, 1000 nM | 110
sgRNA knockout: sgATF6, 10000 nM | 95.6
sgRNA knockout: sgATG7, 10 nM | 123
sgRNA knockout: sgATG7, 100 nM | 115
sgRNA knockout: sgATG7, 1000 nM | 104
sgRNA knockout: sgATG7, 10000 nM | 104
sgRNA knockout: sgERN1, 10 nM | 152
sgRNA knockout: sgERN1, 100 nM | 102
sgRNA knockout: sgERN1, 1000 nM | 98.9
sgRNA knockout: sgERN1, 10000 nM | 90.1
sgRNA knockout: sgHSF1, 10 nM | 127
sgRNA knockout: sgHSF1, 100 nM | 116
sgRNA knockout: sgHSF1, 1000 nM | 100
sgRNA knockout: sgHSF1, 10000 nM | 112
sgRNA knockout: sgHSF2, 10 nM | 125
sgRNA knockout: sgHSF2, 100 nM | 97.3
sgRNA knockout: sgHSF2, 1000 nM | 112.8
sgRNA knockout: sgHSF2, 10000 nM | 102
sgRNA knockout: sgKEAP1, 10 nM | 172
sgRNA knockout: sgKEAP1, 100 nM | 122
sgRNA knockout: sgKEAP1, 1000 nM | 102
sgRNA knockout: sgKEAP1, 10000 nM | 114
sgRNA knockout: sgNFE2L2, 10 nM | 132
sgRNA knockout: sgNFE2L2, 100 nM | 117
sgRNA knockout: sgNFE2L2, 1000 nM | 113
sgRNA knockout: sgNFE2L2, 10000 nM | 87.19
sgRNA knockout: sgSLC35F2, 10 nM | 125
sgRNA knockout: sgSLC35F2, 100 nM | 101
sgRNA knockout: sgSLC35F2, 1000 nM | 92.6
sgRNA knockout: sgSLC35F2, 10000 nM | 94.5
sgRNA knockout: sgXBP1, 10 nM | 140
sgRNA knockout: sgXBP1, 100 nM | 126
sgRNA knockout: sgXBP1, 1000 nM | 122
sgRNA knockout: sgXBP1, 10000 nM | 109.66
